Test results: patent US20100041672A1, “USE OF QUINOLINE DERIVATIVES IN THE TREATMENT OF PAIN AND IRRITABLE BOWEL SYNDROME” (GLAXO GROUP LIMITED, priority 2007, published 2010)
Some results were stated once for a whole list of compounds, not compound by compound.

Test system: rats
Experiment: Chronic Constriction Injury (CCI) model of neuropathic pain in rats (mechanical allodynia, Von Frey hairs)
Type: in vivo, rat
Details: 30 mg/kg b.i.d. po, after a single dose
Method: Under Isoflurane anaesthesia, the sciatic nerve in the left leg of the rat was exposed at mid thigh level and 4 loose ligatures of Chromic 4.0 gut tied around it. The wound was closed and secured with staples. The Sham operated animals underwent the same surgical technique except that the nerve was not ligated. […] The presence of mechanical (tactile) allodynia was assessed using the manual application of Von Frey hair monofilaments (Stoelting, Wood Dale, Ill., USA). Animals were placed in clear Perspex boxes on a raised perforated metallic platform, from below which the monofilaments were applied in ascending order to the plantar region of the hind paw (range: 1.4 g-26 g). Each hair was applied for approx. 3-5 seconds until a withdrawal response was observed. The lowest hair to give a withdrawal was recorded as the response after confirmation with reapplication of lower and/or higher hairs within the range tested.
All data are expressed as mean±s.e.m. […] Data recorded in Excel (Microsoft XP) and graphs produced in GraphPad Prism (Version 4).
By 8 days post-surgery neuropathy was beginning to develop as mechanical allodynia (assessed using mVFHs) was evident in all CCI operated groups compared to the Sham operated animals. […]

NCC1(CC(=O)O)CCCCC1 [gabapentin, reference compound]
time to significant reversal of CCI-induced mechanical allodynia: ≤ 1 h
